Laboratory results reported in doi:10.1101/681668 (bioRxiv, 2019).
These are yes or no findings as the source states them, for the method shown. Where a sequence is shown, tags or fusion partners need not be part of it.

Chains of the proteins cited; added tags and fusions are not shown.
UniProt P62136: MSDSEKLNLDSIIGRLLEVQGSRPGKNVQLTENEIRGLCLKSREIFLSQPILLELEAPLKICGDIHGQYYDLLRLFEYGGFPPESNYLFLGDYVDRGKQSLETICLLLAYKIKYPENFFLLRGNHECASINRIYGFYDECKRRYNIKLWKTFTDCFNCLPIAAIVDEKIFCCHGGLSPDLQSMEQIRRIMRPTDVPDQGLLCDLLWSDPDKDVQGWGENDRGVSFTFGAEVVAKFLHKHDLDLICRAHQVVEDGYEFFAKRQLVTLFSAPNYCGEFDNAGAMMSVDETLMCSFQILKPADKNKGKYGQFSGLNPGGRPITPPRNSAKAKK

How the values were obtained:
Experiment in all cases: pull-down
MBP-ORC1-PP1^mut (human) = molecular target: T1, MBP-ORC1-PP1^mut (human) (UniProt Q13415)
T1 sequence: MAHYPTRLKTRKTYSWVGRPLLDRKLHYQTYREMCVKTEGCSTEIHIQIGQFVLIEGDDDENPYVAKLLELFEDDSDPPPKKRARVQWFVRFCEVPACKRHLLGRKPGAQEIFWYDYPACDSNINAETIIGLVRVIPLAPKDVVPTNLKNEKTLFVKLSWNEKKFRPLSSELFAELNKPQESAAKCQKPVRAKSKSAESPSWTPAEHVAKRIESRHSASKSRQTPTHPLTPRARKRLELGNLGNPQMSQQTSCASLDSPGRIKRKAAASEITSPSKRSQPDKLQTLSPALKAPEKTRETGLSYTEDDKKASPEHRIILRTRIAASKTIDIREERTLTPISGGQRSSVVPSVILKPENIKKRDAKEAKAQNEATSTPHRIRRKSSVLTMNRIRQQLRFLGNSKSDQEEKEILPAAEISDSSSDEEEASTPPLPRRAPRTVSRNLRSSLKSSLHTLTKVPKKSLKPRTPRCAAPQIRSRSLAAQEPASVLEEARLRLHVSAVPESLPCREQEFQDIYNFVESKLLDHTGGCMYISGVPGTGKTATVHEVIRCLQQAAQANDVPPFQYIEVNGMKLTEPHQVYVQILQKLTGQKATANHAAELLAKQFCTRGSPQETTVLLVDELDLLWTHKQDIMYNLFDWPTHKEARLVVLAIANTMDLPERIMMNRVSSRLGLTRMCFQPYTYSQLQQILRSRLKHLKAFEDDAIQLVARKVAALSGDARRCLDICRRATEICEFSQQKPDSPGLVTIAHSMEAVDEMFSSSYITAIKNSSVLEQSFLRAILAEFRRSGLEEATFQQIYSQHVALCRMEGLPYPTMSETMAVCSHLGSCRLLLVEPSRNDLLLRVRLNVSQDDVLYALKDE

[1] = molecular target: T2, MBP-ORC1 Δ260-280 (human) (UniProt Q13415)
T2 sequence: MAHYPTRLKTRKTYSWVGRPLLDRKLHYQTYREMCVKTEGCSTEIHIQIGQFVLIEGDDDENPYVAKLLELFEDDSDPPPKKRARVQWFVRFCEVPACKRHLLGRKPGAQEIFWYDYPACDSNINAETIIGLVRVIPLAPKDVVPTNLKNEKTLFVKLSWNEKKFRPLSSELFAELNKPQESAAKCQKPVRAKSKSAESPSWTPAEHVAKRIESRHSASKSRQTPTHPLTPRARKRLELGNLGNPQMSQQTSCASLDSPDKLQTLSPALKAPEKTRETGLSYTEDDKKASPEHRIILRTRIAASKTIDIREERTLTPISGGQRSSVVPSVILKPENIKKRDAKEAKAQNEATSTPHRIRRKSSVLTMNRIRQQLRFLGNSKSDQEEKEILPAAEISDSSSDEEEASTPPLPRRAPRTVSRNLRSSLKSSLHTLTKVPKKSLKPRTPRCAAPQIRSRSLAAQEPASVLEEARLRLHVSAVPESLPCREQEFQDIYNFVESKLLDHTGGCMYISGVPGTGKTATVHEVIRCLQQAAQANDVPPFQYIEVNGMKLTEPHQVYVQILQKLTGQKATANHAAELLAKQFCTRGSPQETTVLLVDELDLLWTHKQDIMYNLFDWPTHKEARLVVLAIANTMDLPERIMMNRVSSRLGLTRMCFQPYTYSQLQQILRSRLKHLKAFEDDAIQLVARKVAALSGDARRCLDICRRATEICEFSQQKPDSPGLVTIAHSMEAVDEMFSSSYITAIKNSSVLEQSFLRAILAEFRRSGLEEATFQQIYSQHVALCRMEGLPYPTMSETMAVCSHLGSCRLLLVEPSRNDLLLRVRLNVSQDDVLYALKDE

MBP-ORC6 (human) = molecular target: T3, MBP-ORC6 (human) (UniProt Q9Y5N6)
T3 sequence: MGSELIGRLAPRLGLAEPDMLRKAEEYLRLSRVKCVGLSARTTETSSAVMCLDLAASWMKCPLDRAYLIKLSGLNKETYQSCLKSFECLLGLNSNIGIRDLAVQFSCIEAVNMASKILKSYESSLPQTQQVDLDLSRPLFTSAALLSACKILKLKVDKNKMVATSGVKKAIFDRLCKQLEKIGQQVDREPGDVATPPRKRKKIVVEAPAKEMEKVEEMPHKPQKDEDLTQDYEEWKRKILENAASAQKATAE

MBP-ORC4 (human) = molecular target: T4, MBP-ORC4 (human) (UniProt O43929)
T4 sequence: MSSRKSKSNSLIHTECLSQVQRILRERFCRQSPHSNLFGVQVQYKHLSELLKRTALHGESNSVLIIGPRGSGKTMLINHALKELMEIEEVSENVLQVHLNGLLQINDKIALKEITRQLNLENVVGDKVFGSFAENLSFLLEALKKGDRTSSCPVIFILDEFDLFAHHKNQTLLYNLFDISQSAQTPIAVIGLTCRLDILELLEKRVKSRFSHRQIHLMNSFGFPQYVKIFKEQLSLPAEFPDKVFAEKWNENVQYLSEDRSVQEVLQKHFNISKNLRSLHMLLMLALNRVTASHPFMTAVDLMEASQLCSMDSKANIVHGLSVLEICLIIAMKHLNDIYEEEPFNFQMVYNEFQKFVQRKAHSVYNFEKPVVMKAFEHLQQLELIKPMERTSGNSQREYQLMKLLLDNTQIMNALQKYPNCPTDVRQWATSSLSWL

MBP-ORC3 (human) = molecular target: T5, MBP-ORC3 (human) (UniProt Q9UBD5)
T5 sequence: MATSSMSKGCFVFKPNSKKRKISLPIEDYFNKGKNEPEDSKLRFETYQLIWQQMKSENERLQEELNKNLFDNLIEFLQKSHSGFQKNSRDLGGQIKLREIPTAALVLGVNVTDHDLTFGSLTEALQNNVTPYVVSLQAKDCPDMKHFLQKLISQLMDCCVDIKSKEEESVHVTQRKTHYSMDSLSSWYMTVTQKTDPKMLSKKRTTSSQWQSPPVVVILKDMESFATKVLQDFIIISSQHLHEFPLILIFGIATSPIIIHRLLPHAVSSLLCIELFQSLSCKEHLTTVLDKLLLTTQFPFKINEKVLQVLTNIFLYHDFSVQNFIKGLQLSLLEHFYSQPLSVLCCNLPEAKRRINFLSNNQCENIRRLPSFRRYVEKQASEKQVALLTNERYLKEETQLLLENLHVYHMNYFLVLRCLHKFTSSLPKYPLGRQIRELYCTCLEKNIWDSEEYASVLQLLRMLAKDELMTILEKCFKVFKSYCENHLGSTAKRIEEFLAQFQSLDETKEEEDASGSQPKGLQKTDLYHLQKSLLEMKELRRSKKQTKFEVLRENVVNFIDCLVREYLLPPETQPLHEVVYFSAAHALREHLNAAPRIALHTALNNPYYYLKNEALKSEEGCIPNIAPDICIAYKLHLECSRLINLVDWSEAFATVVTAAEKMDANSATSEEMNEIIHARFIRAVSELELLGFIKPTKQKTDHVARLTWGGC

MBP-ORC5 (human) = molecular target: T6, MBP-ORC5 (human) (UniProt O43913)
T6 sequence: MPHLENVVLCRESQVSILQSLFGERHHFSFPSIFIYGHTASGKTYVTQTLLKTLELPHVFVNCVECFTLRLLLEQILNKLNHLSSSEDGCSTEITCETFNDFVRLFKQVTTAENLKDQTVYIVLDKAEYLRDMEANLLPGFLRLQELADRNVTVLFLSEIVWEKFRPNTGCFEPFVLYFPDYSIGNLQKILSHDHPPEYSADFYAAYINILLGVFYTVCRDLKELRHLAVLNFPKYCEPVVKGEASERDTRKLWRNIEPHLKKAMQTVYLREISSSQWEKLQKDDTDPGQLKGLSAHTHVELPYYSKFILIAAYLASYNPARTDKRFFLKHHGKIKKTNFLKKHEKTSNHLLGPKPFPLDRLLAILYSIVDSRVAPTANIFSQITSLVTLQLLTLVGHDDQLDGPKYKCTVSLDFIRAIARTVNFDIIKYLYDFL

binding (MBP-ORC1-PP1^mut (human)): no binding
binding [1]: no binding
binding (MBP-ORC6 (human)): no binding
binding (MBP-ORC4 (human)): no binding
binding (MBP-ORC3 (human)): no binding
binding (MBP-ORC5 (human)): no binding
Substance: GST-PP1α (from UniProt P62136 1-330) (enzyme)
